Test in all cases: affinity purification with mass spectrometry; HA3x-tagged baits stably expressed in Drosophila S2 cells; large-scale affinity purification on α-HA resin, mass spectrometric analysis; minimum score of two unique peptides
For assay [1], the target named is T1, HA3x-tagged DARK (UniProt Q7KLI1).
T1 sequence: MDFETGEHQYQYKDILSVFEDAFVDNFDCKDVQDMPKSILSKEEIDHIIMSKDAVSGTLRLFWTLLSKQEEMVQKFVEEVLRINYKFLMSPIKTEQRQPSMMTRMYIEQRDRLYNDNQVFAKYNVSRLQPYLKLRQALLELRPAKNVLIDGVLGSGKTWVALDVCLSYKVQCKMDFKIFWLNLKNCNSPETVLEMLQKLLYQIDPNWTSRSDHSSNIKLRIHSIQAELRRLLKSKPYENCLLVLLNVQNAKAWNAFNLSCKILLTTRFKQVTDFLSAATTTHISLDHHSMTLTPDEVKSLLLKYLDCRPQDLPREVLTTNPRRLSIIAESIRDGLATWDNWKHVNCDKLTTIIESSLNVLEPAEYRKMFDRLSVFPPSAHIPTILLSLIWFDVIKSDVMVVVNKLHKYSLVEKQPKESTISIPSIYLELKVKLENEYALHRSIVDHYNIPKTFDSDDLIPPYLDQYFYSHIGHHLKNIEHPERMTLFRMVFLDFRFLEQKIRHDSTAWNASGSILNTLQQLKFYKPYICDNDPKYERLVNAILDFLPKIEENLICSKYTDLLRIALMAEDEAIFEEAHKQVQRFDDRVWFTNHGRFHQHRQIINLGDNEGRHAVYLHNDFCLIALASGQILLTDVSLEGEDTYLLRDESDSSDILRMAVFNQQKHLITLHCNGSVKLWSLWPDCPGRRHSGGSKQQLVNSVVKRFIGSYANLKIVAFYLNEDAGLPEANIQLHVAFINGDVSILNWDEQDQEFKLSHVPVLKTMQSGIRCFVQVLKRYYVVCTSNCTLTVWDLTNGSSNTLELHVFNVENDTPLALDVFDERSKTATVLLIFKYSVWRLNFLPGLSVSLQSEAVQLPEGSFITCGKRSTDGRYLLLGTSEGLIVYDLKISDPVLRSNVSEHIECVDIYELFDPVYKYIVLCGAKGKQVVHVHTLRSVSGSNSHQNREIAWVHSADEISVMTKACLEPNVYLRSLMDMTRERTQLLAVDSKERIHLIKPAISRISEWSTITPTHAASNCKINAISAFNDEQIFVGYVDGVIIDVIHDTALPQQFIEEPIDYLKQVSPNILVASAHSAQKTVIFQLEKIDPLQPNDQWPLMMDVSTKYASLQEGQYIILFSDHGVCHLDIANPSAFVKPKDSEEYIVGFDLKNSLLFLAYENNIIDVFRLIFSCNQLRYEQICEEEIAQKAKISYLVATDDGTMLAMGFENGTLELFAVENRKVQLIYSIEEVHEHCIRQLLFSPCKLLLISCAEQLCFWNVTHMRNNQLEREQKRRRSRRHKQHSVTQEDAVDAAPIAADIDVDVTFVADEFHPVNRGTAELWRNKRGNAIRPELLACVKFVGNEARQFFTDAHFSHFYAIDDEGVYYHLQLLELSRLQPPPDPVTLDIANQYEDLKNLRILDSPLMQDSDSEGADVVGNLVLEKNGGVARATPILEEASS

Amino acid sequences for entries named in this document (tags omitted).
UniProt Q9V3Z6: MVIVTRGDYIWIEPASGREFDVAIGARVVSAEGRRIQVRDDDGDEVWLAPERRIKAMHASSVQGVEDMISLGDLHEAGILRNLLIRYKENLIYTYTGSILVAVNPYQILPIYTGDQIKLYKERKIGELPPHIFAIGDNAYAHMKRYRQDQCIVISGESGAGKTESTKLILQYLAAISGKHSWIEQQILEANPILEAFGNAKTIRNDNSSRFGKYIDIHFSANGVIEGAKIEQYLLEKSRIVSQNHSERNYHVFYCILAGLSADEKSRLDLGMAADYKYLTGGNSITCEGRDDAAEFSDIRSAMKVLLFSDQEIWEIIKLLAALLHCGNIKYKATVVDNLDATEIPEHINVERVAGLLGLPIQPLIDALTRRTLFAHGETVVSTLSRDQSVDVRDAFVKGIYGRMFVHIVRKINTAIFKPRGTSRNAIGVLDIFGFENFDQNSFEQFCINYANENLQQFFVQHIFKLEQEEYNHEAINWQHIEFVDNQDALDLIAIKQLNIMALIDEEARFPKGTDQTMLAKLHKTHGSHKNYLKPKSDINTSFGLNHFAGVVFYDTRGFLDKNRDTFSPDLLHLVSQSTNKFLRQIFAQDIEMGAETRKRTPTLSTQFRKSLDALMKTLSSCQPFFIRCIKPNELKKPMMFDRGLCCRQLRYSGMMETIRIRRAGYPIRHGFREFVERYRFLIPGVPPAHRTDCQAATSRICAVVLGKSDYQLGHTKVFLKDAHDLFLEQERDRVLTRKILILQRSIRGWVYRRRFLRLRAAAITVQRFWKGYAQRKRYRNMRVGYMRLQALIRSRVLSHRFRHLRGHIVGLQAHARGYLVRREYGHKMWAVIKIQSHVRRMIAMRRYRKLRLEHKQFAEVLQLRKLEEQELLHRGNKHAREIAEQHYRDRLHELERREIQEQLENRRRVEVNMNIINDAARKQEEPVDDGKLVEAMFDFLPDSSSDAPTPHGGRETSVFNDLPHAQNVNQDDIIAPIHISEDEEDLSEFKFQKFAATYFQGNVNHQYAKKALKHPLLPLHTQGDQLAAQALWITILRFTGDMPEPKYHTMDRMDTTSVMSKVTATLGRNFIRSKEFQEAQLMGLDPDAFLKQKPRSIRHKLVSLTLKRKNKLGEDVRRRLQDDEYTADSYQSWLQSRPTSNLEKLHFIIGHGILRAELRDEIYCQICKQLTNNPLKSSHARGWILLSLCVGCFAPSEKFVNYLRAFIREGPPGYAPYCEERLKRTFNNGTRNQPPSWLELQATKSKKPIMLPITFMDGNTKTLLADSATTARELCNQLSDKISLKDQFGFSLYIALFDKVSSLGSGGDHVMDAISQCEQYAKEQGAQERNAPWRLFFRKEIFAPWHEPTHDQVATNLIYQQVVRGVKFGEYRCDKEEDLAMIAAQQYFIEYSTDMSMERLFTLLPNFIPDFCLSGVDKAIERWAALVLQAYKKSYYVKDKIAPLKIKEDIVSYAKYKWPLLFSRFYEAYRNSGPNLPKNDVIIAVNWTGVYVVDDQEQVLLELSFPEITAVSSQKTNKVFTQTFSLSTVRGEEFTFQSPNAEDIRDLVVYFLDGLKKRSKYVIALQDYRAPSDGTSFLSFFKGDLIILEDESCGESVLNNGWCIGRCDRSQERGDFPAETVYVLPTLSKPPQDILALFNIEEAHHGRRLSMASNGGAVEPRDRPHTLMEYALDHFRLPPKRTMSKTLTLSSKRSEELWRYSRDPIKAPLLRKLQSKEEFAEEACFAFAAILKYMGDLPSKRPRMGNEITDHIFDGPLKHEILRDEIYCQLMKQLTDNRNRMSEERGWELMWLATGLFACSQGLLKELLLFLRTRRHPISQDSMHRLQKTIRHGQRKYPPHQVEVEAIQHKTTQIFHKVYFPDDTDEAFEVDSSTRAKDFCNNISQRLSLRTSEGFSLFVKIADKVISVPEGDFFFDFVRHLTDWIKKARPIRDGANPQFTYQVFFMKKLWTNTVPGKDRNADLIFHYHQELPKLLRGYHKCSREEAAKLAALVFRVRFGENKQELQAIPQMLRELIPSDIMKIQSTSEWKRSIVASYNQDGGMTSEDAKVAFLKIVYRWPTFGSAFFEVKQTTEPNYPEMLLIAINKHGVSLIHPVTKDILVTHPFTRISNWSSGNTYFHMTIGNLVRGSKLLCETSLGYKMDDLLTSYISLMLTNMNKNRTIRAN

Assay [2] addresses T2, HA3x-tagged DRONC (Drosophila) (UniProt Q9XYF4).
T2 sequence: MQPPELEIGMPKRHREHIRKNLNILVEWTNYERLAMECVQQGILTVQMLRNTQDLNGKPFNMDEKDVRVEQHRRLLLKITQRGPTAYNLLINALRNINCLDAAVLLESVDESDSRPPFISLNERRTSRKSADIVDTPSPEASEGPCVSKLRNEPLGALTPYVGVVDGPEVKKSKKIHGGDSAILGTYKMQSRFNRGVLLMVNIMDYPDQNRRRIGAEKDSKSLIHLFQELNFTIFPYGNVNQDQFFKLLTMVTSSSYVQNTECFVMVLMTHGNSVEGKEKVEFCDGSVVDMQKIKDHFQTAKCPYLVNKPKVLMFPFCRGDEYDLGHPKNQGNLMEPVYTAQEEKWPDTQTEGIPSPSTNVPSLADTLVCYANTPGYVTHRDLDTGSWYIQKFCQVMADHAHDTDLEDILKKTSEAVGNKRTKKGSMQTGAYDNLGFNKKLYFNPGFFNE

For assay [3], the target named is T3, HA3x-tagged IRD5 (UniProt Q9VEZ5).
T3 sequence: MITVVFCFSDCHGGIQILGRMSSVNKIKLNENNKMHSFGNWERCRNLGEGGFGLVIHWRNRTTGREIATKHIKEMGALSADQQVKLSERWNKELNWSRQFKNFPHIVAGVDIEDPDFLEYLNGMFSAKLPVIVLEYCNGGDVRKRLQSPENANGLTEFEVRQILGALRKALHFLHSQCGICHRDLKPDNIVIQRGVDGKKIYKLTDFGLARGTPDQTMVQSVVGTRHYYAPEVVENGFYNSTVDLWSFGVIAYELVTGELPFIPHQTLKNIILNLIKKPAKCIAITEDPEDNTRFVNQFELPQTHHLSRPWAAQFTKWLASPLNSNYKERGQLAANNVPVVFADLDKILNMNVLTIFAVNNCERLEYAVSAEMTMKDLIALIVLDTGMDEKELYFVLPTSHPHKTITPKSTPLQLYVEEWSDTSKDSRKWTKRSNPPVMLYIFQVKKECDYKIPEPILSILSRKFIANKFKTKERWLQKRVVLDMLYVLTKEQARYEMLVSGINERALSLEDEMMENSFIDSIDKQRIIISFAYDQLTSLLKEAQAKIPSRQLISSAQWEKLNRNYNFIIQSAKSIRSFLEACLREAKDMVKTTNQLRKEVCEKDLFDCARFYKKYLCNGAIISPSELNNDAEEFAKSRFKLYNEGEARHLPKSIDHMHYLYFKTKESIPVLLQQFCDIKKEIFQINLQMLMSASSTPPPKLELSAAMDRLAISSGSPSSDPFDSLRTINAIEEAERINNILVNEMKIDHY

From paper PMC4792956 come the findings set out here.

No constants are given. Whether binding was seen depends on the method and setting. Binding seen in cells or lysates may run through a third protein. Here binding means that the protein was enriched with, or labelled near, the bait; the list need not be complete. For part of these data: No binding means not detected with the bait. Sequences can lack the tags named with a protein.

Turning to “CRINKLED (CK), endogenous in S2 cells (from UniProt Q9V3Z6 1-2167)”, the results for the binding result in assay [1], in assay [2] and in assay [3] were “no binding”, “binds” and “no binding”, respectively.
